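Whole-cell assay for inhibitors of Mycobacterium tuberculosis growth, labelled Cornell in the record; the read-out is not stated. The concentration is filed as 10 mM, unlikely as a test dose, so the dose is not known. Higher means stronger inhibition (inferred from two other growth screens of the library). Of about 53,000 compounds tested this way, about 900 (1.7%) reached 50% or more in at least one test.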

Results are given as percent effect.
The record does not define 0% and 100%; most values in the screen are far below 50% and negative numbers occur (in some assays of this library far below -100).
This is an unselected part of the compounds tested.

{"compound": "O=C(O)C(F)(F)F.[H][C@@]12CN(C(=O)[C@H]3CCCO3)C[C@]1([H])C(=O)N(Cc1csc(C)n1)C2", "Percent Effect": 14.3}
{"compound": "CC(c1cccc(O)c1)N(C)S(=O)(=O)c1cccnc1", "stereo": "stereo unspecified", "Percent Effect": 5.007}
{"compound": "N#Cc1ccccc1C(=O)NCCC1CN(Cc2ccco2)CCO1", "stereo": "stereo unspecified", "Percent Effect": 12.26}
{"compound": "Cc1cc(OCC(=O)N2CCCC(c3nc(C)c(C)s3)C2)no1", "stereo": "stereo unspecified", "Percent Effect": -7.189}
{"compound": "O=C(CNc1cc(-n2cnnn2)ccc1F)Nc1ccccc1Cl", "Percent Effect": 96.42}
{"compound": "CC(C(=O)Nc1ccc(N2CCCCC2)nc1)n1ccnc1", "stereo": "stereo unspecified", "Percent Effect": -45.82}
{"compound": "O=C(CC1CN(Cc2ccccc2)CCO1)Nc1ccccc1F", "stereo": "stereo unspecified", "Percent Effect": 17.81}
{"compound": "Cc1c[nH]c(CN2CCCCC2CCN(C)C)c(C)c1=O", "stereo": "stereo unspecified", "Percent Effect": 26.17}
{"compound": "Cc1ccc(C(C)(O)CNC(=O)c2sccc2OC(F)F)o1", "stereo": "stereo unspecified", "Percent Effect": 14.01}
{"compound": "COc1cccc(Cc2nnc(SCCS(C)(=O)=O)o2)c1", "Percent Effect": 16.12}
{"compound": "CN(Cc1ccccc1)c1ncccc1CNC1CCC1", "Percent Effect": 14.34}
{"compound": "CC[C@H](C)[C@@H](CO)NC(C)Cc1ccccc1F", "stereo": "stereo partly specified", "Percent Effect": 22.03}
{"compound": "c1ccc(SCCN2CCCC(Cn3ccnc3)C2)cc1", "stereo": "stereo unspecified", "Percent Effect": -8.786}
{"compound": "CCc1nc(C2CCCN2CC(=O)Nc2cc(C)nn2C)no1", "stereo": "stereo unspecified", "Percent Effect": -46.55}
{"compound": "CN(Cc1cccc2ncccc12)C(=O)CCC(F)(F)F", "Percent Effect": 0.4349}
{"compound": "CCc1ccc(S(=O)(=O)Nc2cnc(N3CCOCC3)nc2)cc1", "Percent Effect": 24.89}
{"compound": "CN1C(=N)NC(=O)/C1=C/c1ccc(-c2ccc(Br)cc2)o1", "Percent Effect": 7.63}
{"compound": "Cc1nnc2n1CCN(Cc1nc3c(F)cccc3[nH]1)C2", "Percent Effect": 2.415}
{"compound": "O=C(c1ncccn1)N1CCC[C@]2(C[C@@H](OCC3CC3)CO2)C1", "Percent Effect": -58.84}
{"compound": "N#CCCSc1nnc(Cc2ccccc2F)o1", "Percent Effect": -18.86}
{"compound": "CCOc1ccc(NC(=O)CN2CCN(c3nccn3C)CC2)cc1", "Percent Effect": 10.41}
{"compound": "CN(Cc1ccncc1)C(=O)NCc1cn(-c2ccccc2)nn1", "Percent Effect": -51.85}
{"compound": "O=C(O)C(F)(F)F.O=C(O)C(F)(F)F.[H][C@@]12C[C@@H](C(=O)Nc3cccnc3)CN(Cc3ccsc3)[C@]1([H])CCO2", "Percent Effect": 17.64}
{"compound": "CC(C)n1cc(CN2CCCN(C(=O)COC3CCCC3)CC2)cn1", "Percent Effect": 7.686}
{"compound": "CCC(=O)Nc1cccc(OCC(=O)N2CC=CC2C(C)C)c1", "stereo": "stereo unspecified", "Percent Effect": 23.98}
{"compound": "NC(=O)c1cnc(NCC(=O)NCc2ccco2)c(Cl)c1", "Percent Effect": 14.18}
{"compound": "O=C(O)C(F)(F)F.[H][C@@]12CCN(Cc3c(C)noc3C)C[C@@]1([H])[C@H](C(=O)NCC1CC1)CCO2", "Percent Effect": 9.126}
{"compound": "O=C(O)C(F)(F)F.c1coc(CN2Cc3ccnn3CC(COCC3CC3)C2)c1", "stereo": "stereo unspecified", "Percent Effect": 21.67}
{"compound": "O=C(O)C(F)(F)F.O=C(c1cccnc1)N1CCc2ncnc(N3CCOCC3)c2CC1", "Percent Effect": 21.45}
{"compound": "Brc1csc(-c2noc(C3COCCO3)n2)c1", "stereo": "stereo unspecified", "Percent Effect": -22.95}
{"compound": "O=C(O)C(F)(F)F.O=C1CC2(CCN(CC3CC3)C2)CN1c1ccc2c(c1)OCO2", "stereo": "stereo unspecified", "Percent Effect": 10.52}
{"compound": "O=C(c1scc2c1OCCO2)N1CCOC(Cc2cccc(F)c2)C1", "stereo": "stereo unspecified", "Percent Effect": -2.387}
{"compound": "CN1CCCN(CC(CC(=O)Nc2ccc(Cl)cc2)C(=O)O)CC1", "stereo": "stereo unspecified", "Percent Effect": 27.51}
{"compound": "CCc1nccc(CN2CCCC(c3nn(C)c(=O)n3CC)C2)n1", "stereo": "stereo unspecified", "Percent Effect": 12.64}
{"compound": "Cn1cc(C(=O)NCC(Cc2cccc(F)c2)N2CCCCC2=O)nn1", "stereo": "stereo unspecified", "Percent Effect": 2.503}
{"compound": "O=C(NCc1ccccc1CN1CCCCCC1)Nc1nncs1", "Percent Effect": -20.32}
{"compound": "COc1ncccc1CNC1CCc2c(ccc(=O)n2CC2CC2)C1.O=C(O)C(F)(F)F.O=C(O)C(F)(F)F", "stereo": "stereo unspecified", "Percent Effect": -3.289}
{"compound": "COc1ccc(-c2cc(C3CCNCC3)nc(C)n2)cc1.Cl", "Percent Effect": 26.05}
{"compound": "OCCOc1cc(F)ccc1NCc1cccc(F)c1F", "Percent Effect": 3.055}
{"compound": "CCC(CN1CCCC1)n1cncc1-c1cnn(-c2ccc(F)cc2)c1.Cl", "stereo": "stereo unspecified", "Percent Effect": 20.09}
{"compound": "COc1cc(CSc2nnc(C)n2CC(N)=O)ccc1SC", "Percent Effect": 13.42}
{"compound": "CCCS(=O)(=O)NC1CCN(c2nnc(C)c(C)c2C#N)CC1", "Percent Effect": -1.347}
{"compound": "CN(Cc1cccnc1)C1CC2(CCN(Cc3cccnc3)CC2)C1.O=C(O)C(F)(F)F.O=C(O)C(F)(F)F.O=C(O)C(F)(F)F", "Percent Effect": -52.5}
{"compound": "CCc1csc(C2CCCN(C(=O)c3ccccn3)C2)n1", "stereo": "stereo unspecified", "Percent Effect": -38.63}
{"compound": "Cc1cc(C(=O)O)ccc1NS(=O)(=O)c1c(C)nn(C(C)C)c1C", "Percent Effect": -5.433}
{"compound": "O=C(O)C(F)(F)F.[H][C@@]12C[C@H](C(=O)NC3CC3)CN(Cc3ccc(F)cc3)[C@]1([H])CCO2", "Percent Effect": 17.62}
{"compound": "[H][C@]1([C@H](O)c2ccc(NC(=O)COC)cc2)COCC(=O)N1CC(C)C", "Percent Effect": -1.777}
{"compound": "Cc1cc(-c2cnc(N3CCCC3)nc2C(C)C)on1", "Percent Effect": -0.9341}
{"compound": "Cn1cc(C(C)(O)CNc2ccc(C(F)(F)F)cn2)cn1", "stereo": "stereo unspecified", "Percent Effect": 12.87}
{"compound": "CC(C)c1nc(CN(C)C2CCN(CCNS(C)(=O)=O)C2)no1", "stereo": "stereo unspecified", "Percent Effect": -13.92}
{"compound": "[H][C@@]12CN(C(=O)Nc3ccc(F)cc3)C[C@]1([H])OCC(=O)N2C", "Percent Effect": -14.35}

For reference, 7 entries once more:

* CCOc1ccc(NC(=O)CN2CCN(c3nccn3C)CC2)cc1 | 10.41%
* CN(Cc1cccnc1)C1CC2(CCN(Cc3cccnc3)CC2)C1.O=C(O)C(F)(F)F.O=C(O)C(F)(F)F.O=C(O)C(F)(F)F | -52.5%
* CCC(=O)Nc1cccc(OCC(=O)N2CC=CC2C(C)C)c1 (stereo unspecified) | 23.98%
* O=C(CNc1cc(-n2cnnn2)ccc1F)Nc1ccccc1Cl | 96.42%
* CCc1csc(C2CCCN(C(=O)c3ccccn3)C2)n1 (stereo unspecified) | -38.63%
* O=C(O)C(F)(F)F.O=C1CC2(CCN(CC3CC3)C2)CN1c1ccc2c(c1)OCO2 (stereo unspecified) | 10.52%
* O=C(O)C(F)(F)F.[H][C@@]12C[C@H](C(=O)NC3CC3)CN(Cc3ccc(F)cc3)[C@]1([H])CCO2 | 17.62%

Measurements from “University of Dundee, Small-Polar-MMV Screening Library” (2021), ChEMBL document CHEMBL3988442.